# PubChem BioAssay AID1259279 | Sanger Institute, 2017
# Purpose: 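Kinases that colorectal cancer cells need to survive, alone or with drugs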 (primary screen)
# System: LS180 human colorectal cancer cells
# Knock-down reagent: siRNA pool against human genes
# Challenge: anchor drug BYL719 at 1 µM, cetuximab at 5 µg/ml or trametinib at 10 nM, or DMSO vehicle only
# Measurement: 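Viability as a fraction of non-targeting control and as a replicate-averaged robust z-score, with separate synergy scores for BYL719, cetuximab and trametinib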
# Direction: viability z-score, no drug: higher = more viable cells after knock-down; viability, no drug: higher = more viable cells; synergy score with BYL719 and synergy score with cetuximab and synergy score with trametinib: higher = stronger synthetic lethal synergy with drug
# Hit rule: 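Essential (active) calls need a no-drug viability z-score lower than -3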
# Calls: active = essential (knock-down alone cuts viability); inactive = no change without drug
# The deposit covers 794 reagents; this is an unselected part. Over the whole deposit, 11 (1.4%) got an active call. 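Calls reflect knock-down alone in the vehicle arm, not drug synergy.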 Viability is capped at 1. The record does not give: the amount of reagent, the time to read-out.
target gene,PubChem SID,"viability z-score, no drug","viability, no drug (fraction)",synergy score with BYL719,synergy score with cetuximab,synergy score with trametinib,activity call
GUK1 (GeneID 2987),SID152156775,-0.926,0.805,-0.169,-0.135,-0.0855,inactive
RIPK3 (GeneID 11035),SID152154350,0.826,0.996,-0.00335,0.0561,-0.0611,inactive
SOS2 (GeneID 6655),SID152153288,-1.42,0.752,-0.29,-0.291,-0.312,inactive
EIF2AK2 (GeneID 5610),SID56478676,0.0175,0.908,-0.0769,-0.0997,-0.324,inactive
SPHK1 (GeneID 8877),SID152154122,0.86,1,0.0721,-0.0983,0.0464,inactive
HIPK4 (GeneID 147746),SID135620890,0.86,1,-0.122,-0.166,-0.104,inactive
MYLK3 (GeneID 91807),SID152154935,0.618,0.974,-0.0164,-0.171,-0.0527,inactive
MAP3K3 (GeneID 4215),SID56478641,0.296,0.938,-0.0213,-0.0906,0.0137,inactive
RYK (GeneID 6259),SID152147158,0.86,1,-0.155,-0.089,-0.097,inactive
TGFBR1 (GeneID 7046),SID152153272,0.86,1,-0.056,-0.154,0.00673,inactive
TTBK2 (GeneID 146057),SID152155925,-1.31,0.764,-0.0345,-0.195,-0.0936,inactive
MAP4K5 (GeneID 11183),SID56478702,0.332,0.942,-0.16,0.0251,-0.114,inactive
PRP4K (GeneID 8899),SID152152780,0.516,0.962,-0.0295,0.0277,0.0661,inactive
EPHB3 (GeneID 2049),SID56478503,-0.364,0.867,0.0681,0.105,0.169,inactive
MAP3K12 (GeneID 7786),SID56478643,0.0904,0.916,-0.12,-0.236,0.117,inactive
GTF2H1 (GeneID 2965),SID56479243,-0.845,0.814,0.066,0.158,0.0594,inactive
BMX (GeneID 660),SID152147462,0.86,1,-0.00301,-0.12,0.0717,inactive
PRKACG (GeneID 5568),SID56478826,0.86,1,0.0126,-0.0224,0.0939,inactive
PHKG1 (GeneID 5260),SID152147540,0.86,1,-0.0429,-0.0519,0.000542,inactive
BLK (GeneID 640),SID56478485,0.688,0.981,-0.0518,-0.117,-0.124,inactive
NTRK2 (GeneID 4915),SID152152425,0.86,1,-0.101,-0.0736,-0.122,inactive
TAOK1 (GeneID 57551),SID152151735,0.86,1,-0.00742,-0.0786,0.119,inactive
ERBB2 (GeneID 2064),SID152153302,0.86,1,-0.198,-0.166,-0.0316,inactive
SIK3 (GeneID 23387),SID135620886,0.86,1,-0.108,-0.166,-0.162,inactive
JAK2 (GeneID 3717),SID56478524,0.86,1,-0.00019,-0.151,0.133,inactive
MAP4K4 (GeneID 9448),SID56478747,0.86,1,-0.149,-0.162,-0.123,inactive
ALK (GeneID 238),SID56478483,-2.37,0.648,-0.0284,0.0295,0.101,inactive
PRKX (GeneID 5613),SID152149946,0.698,0.982,0.0399,-0.107,-0.0399,inactive
PDPK1 (GeneID 5170),SID135620604,0.86,1,0.0642,-0.0533,0.135,inactive
CSNK1G3 (GeneID 1456),SID152152817,0.86,1,-0.0555,0.0716,-0.171,inactive
ELF3 (GeneID 1999),SID135623079,-0.938,0.804,-0.119,-0.19,0.017,inactive
PRKACA (GeneID 5566),SID135620859,0.337,0.943,-0.0639,-0.0659,-0.0777,inactive
JAK3 (GeneID 3718),SID56478525,0.86,1,-0.153,-0.166,-0.137,inactive
TTBK1 (GeneID 84630),SID135620866,-0.781,0.821,-0.128,-0.315,0.0169,inactive

Entries above whose gene name starts with P or p (6):
target gene,PubChem SID,"viability z-score, no drug","viability, no drug (fraction)",synergy score with BYL719,synergy score with cetuximab,synergy score with trametinib,activity call
PRP4K (GeneID 8899),SID152152780,0.516,0.962,-0.0295,0.0277,0.0661,inactive
PRKACG (GeneID 5568),SID56478826,0.86,1,0.0126,-0.0224,0.0939,inactive
PHKG1 (GeneID 5260),SID152147540,0.86,1,-0.0429,-0.0519,0.000542,inactive
PRKX (GeneID 5613),SID152149946,0.698,0.982,0.0399,-0.107,-0.0399,inactive
PDPK1 (GeneID 5170),SID135620604,0.86,1,0.0642,-0.0533,0.135,inactive
PRKACA (GeneID 5566),SID135620859,0.337,0.943,-0.0639,-0.0659,-0.0777,inactive
